Values from PubChem BioAssay AID1259323 (Peter MacCallum Cancer Centre, 2017)

- Aim: 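Kinase siRNA screen linking the PAR2 receptor to the TRPV4 channel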 (primary screen)
- Cells: human HEK293 cells stably carrying inducible TRPV4
- Knock-down reagent: siRNA pool against human genes
- Conditions: PAR2 activation; agonist identity and dose not given
- Read-out: 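Real-time Fura-2 calcium after PAR2 activation; early peak and later plateau each as % of mock-transfected wells on the plate, mean of two plates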
- Reading the numbers: TRPV4 plateau calcium, % of mock: higher = stronger sustained TRPV4 calcium entry than mock; PAR2 peak calcium, % of mock: higher = stronger early PAR2 calcium response than mock
- Call rule: 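Active if plateau calcium is under 90% of mock and early peak calcium stays over 79% of mock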
In all, the deposit lists 715 reagents; this is a part drawn at random. Of all reagents, 91 (13%) were called active. 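Active pools lower the sustained TRPV4 phase but spare the early PAR2 peak; PAR2 agonist and dose are not stated; pools repeat across wells.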 The record does not give: the amount of reagent, the time to read-out.

Gene	PubChem SID	TRPV4 plateau calcium, % of mock	PAR2 peak calcium, % of mock	activity call
MAGI1 (GeneID 9223)	SID336297585	102	99.9	inactive
CSNK1A1 (GeneID 1452)	SID336297703	89.9	90.4	active
IPMK (GeneID 253430)	SID336297680	103	100	inactive
CSNK1G1 (GeneID 53944)	SID336297155	111	105	inactive
SRMS (GeneID 6725)	SID336297601	82.4	92	active
TYK2 (GeneID 7297)	SID336297415	102	104	inactive
ITPKB (GeneID 3707)	SID336297659	104	101	inactive
NTRK3 (GeneID 4916)	SID336297519	99.9	97.1	inactive
PRKCE (GeneID 5581)	SID336297145	108	103	inactive
NEK11 (GeneID 79858)	SID336297162	102	98.9	inactive
MAST4 (GeneID 375449)	SID336297329	109	102	inactive
MAP3K11 (GeneID 4296)	SID336297368	94.1	89.9	inactive
DDR1 (GeneID 780)	SID336297722	97.8	99.8	inactive
PKIA (GeneID 5569)	SID336297478	96.2	94.1	inactive
PRKCA (GeneID 5578)	SID336297614	114	93.9	inactive
PRKACA (GeneID 5566)	SID336297435	113	109	inactive
FGFR2 (GeneID 2263)	SID336297533	104	104	inactive
MAPK4 (GeneID 5596)	SID336297062	98.2	97.6	inactive
PDK3 (GeneID 5165)	SID336297344	122	107	inactive
CDADC1 (GeneID 81602)	SID336297288	109	106	inactive
SLK (GeneID 9748)	SID336297586	94.7	92.4	inactive
MLKL (GeneID 197259)	SID336297066	87.3	98	active

The list goes on, starting with the last 2 of the part before.
Gene	PubChem SID	TRPV4 plateau calcium, % of mock	PAR2 peak calcium, % of mock	activity call
SLK (GeneID 9748)	SID336297586	94.7	92.4	inactive
MLKL (GeneID 197259)	SID336297066	87.3	98	active
PRKAR2B (GeneID 5577)	SID336297642	104	97.6	inactive
DCK (GeneID 1633)	SID336297399	109	102	inactive
DGKB (GeneID 1607)	SID336297178	95	99.3	inactive
PIK3C2B (GeneID 5287)	SID336297740	88.8	87.3	active
ROS1 (GeneID 6098)	SID336297384	104	97.7	inactive
TRPM7 (GeneID 54822)	SID336297668	87.1	79.8	active
PCK1 (GeneID 5105)	SID336297590	93.8	97.4	inactive
EPHB6 (GeneID 2051)	SID336297319	101	99.5	inactive
RFK (GeneID 55312)	SID336297363	109	103	inactive
PKMYT1 (GeneID 9088)	SID336297576	99.8	99.7	inactive
CIT (GeneID 11113)	SID336297440	121	109	inactive
CDK8 (GeneID 1024)	SID336297263	102	94.7	inactive
